Measurements published in publication doi:10.64898/2025.12.03.692074.
These are yes or no findings as the source states them, for the method shown. In cells and extracts the contact can be indirect. Some entries that bind do so weakly or less than the wild type.

B1: TRIM8 (protein, UniProt Q9BZR9 1-551)
chain: MAENWKNCFEEELICPICLHVFVEPVQLPCKHNFCRGCIGEAWAKDSGLVRCPECNQAYNQKPGLEKNLKLTNIVEKFNALHVEKPPAALHCVFCRRGPPLPAQKVCLRCEAPCCQSHVQTHLQQPSTARGHLLVEADDVRAWSCPQHNAYRLYHCEAEQVAVCQYCCYYSGAHQGHSVCDVEIRRNEIRKMLMKQQDRLEEREQDIEDQLYKLESDKRLVEEKVNQLKEEVRLQYEKLHQLLDEDLRQTVEVLDKAQAKFCSENAAQALHLGERMQEAKKLLGSLQLLFDKTEDVSFMKNTKSVKILMDRTQTCTSSSLSPTKIGHLNSKLFLNEVAKKEKQLRKMLEGPFSTPVPFLQSVPLYPCGVSSSGAEKRKHSTAFPEASFLETSSGPVGGQYGAAGTASGEGQSGQPLGPCSSTQHLVALPGGAQPVHSSPVFPPSQYPNGSAAQQPMLPQYGGRKILVCSVDNCYCSSVANHGGHQPYPRSGHFPWTVPSQEYSHPLPPTPSVPQSLPSLAVRDWLDASQQPGHQDFYRVYGQPSTKHYVTS
B2: 26S proteasome non-ATPase regulatory subunit 9 (PSMD9) (protein, UniProt O00233 1-223)
chain: MSDEEARQSGGSSQAGVVTVSDVQELMRRKEEIEAQIKANYDVLESQKGIGMNEPLVDCEGYPRSDVDLYQVRTARHNIICLQNDHKAVMKQVEEALHQLHARDKEKQARDMAEAHKEAMSRKLGQSESQGPPRAFAKVNSISPGSPASIAGLQVDDEIVEFGSVNTQNFQSLHNIGSVVQHSEGKPLNVTVIRRGEKHQLRLVPTRWAGKGLLGCNIIPLQR

Biological target: FLAG-miP-FERMT3 (human)
Assay: co-IP

| Binder | binding |
| --- | --- |
| B1 | binds |
| B2 | binds |
